Measured values reported in article PMC8395203.
These are yes or no findings as the source states them, for the method shown. In cells and extracts the contact can be indirect. Some results given as binding are weak or reduced against the parent protein; the word gives no strength. For some of these results: Sequences can lack the tags named with a protein.

Sequences of proteins named here, by UniProt entry; tags and fusion partners are left off.
UniProt Q96GD4: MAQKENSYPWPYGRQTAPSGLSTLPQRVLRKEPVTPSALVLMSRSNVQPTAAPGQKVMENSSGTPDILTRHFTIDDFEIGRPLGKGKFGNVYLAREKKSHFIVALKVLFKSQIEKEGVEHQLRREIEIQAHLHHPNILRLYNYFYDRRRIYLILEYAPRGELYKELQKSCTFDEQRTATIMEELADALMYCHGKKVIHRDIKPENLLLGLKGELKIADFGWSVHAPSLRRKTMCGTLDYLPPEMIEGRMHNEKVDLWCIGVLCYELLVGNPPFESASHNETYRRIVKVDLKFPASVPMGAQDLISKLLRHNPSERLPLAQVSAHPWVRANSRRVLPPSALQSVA

What was measured:
[1] = biological target: T1, USP48 (endogenous) (human (endogenous in HeLa)) (UniProt Q86UV5); assay: co-IP; endogenous IP from HeLa lysates (about 5 mg) with USP48 or Aurora B antibodies, protein A/G agarose beads, immunoblot; cells treated with MG132 for 8 h before harvesting
T1 sequence: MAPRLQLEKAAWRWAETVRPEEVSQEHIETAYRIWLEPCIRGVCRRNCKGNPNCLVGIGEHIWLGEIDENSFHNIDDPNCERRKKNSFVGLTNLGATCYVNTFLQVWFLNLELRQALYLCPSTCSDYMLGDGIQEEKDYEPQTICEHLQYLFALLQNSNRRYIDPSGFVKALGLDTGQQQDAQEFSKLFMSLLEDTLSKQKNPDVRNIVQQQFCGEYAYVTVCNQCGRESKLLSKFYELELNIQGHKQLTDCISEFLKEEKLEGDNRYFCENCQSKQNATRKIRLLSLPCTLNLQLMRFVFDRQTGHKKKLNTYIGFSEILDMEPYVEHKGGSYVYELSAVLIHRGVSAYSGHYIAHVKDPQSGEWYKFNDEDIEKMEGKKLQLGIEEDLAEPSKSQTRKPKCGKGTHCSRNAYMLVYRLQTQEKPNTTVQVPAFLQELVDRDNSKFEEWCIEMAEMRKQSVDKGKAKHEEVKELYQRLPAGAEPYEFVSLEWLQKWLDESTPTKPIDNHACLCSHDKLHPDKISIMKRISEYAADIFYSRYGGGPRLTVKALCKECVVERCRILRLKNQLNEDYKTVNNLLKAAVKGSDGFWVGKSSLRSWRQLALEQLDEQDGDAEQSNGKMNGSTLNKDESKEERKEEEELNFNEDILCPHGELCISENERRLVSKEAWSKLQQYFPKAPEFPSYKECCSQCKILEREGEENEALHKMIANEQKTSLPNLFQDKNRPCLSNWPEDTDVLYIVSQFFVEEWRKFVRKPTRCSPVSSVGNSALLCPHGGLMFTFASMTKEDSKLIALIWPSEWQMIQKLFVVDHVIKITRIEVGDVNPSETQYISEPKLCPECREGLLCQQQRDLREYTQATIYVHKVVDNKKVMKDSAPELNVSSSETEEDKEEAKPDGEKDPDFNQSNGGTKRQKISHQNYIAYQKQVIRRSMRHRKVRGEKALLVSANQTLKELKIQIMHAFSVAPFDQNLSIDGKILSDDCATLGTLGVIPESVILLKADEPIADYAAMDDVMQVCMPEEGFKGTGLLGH

Flag-USP48 (human) = biological target: T2, Flag-USP48 (human) (UniProt Q86UV5); assay: co-IP; HEK293 cells co-transfected with Flag-USP48 and Myc-Aurora B, lysed in RIPA buffer (50 mM Tris-HCl pH 7.6, 1% Triton X-100, 150 mM NaCl, 0.1% SDS, 1% sodium deoxycholate, 2 mM EDTA); IP with anti-Flag or anti-Myc at 4 °C overnight, immunoblot
T2 sequence: T1 sequence

[2] = biological target: Aurora B (endogenous) (human (endogenous in HeLa)) (UniProt Q96GD4); assay: co-IP; endogenous IP from HeLa lysates (about 5 mg) with USP48 or Aurora B antibodies, protein A/G agarose beads, immunoblot; cells treated with MG132 for 8 h before harvesting
Myc-Aurora B (human) = Myc-Aurora B (human) (UniProt Q96GD4); assay: co-IP; HEK293 cells co-transfected with Flag-USP48 and Myc-Aurora B, lysed in RIPA buffer (50 mM Tris-HCl pH 7.6, 1% Triton X-100, 150 mM NaCl, 0.1% SDS, 1% sodium deoxycholate, 2 mM EDTA); IP with anti-Flag or anti-Myc at 4 °C overnight, immunoblot

For “Aurora B (endogenous) (from UniProt Q96GD4 1-344) (enzyme)”, the binding [1] was “binds”.

In the case of “Myc-Aurora B (from UniProt Q96GD4 1-344) (enzyme)”, the binding (Flag-USP48 (human)) is reported as “binds”.

B1: USP48 (endogenous) (enzyme, UniProt Q86UV5 1-1035)
chain: T1 sequence
With B1 the binding [2] was “binds”.

B2: Flag-USP48 (enzyme, UniProt Q86UV5 1-1035)
chain: T1 sequence
With B2 the binding (Myc-Aurora B (human)) was “binds”.
